PubChem BioAssay AID1439 (NMMLSC, 2008)
Hit rate of the full screen: of about 220,000 compounds, about 770 (0.35%) were called active. The shares of active, inactive and inconclusive entries below differ from those in the screen. Cut-off read from the data, not from the text of the source: active = binding response below about 49% or above about 150%; inconclusive = no clear call, values can overlap the other calls; inactive = in between.

Protein sequences, listed by entry. Tags and fused reporters are not part of them.
UniProt P09471, whole entry, looked up: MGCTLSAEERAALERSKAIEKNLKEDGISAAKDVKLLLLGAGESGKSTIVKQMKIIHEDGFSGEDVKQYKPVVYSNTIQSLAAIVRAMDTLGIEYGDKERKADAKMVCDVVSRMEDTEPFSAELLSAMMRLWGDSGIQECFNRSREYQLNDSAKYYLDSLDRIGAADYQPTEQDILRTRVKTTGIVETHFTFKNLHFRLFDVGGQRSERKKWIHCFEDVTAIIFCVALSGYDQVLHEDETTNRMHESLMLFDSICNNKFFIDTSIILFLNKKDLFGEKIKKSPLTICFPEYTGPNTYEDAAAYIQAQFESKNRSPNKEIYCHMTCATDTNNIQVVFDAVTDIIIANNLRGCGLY

target: Guanine nucleotide-binding protein G(o) subunit alpha (Homo sapiens) (UniProt P09471); assay: RGS7-Galphao binding modulators, primary screen, biochemical, multiplexed bead flow cytometry (AID 1439); conditions: at 10 µM, actives lie on both sides;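 note: fluorescent Galphao held in activated GDP-AlF4 state binding bead-coupled RGS7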

SMILES | binding response (% of control)
Cc1cccc(C)c1N(Cc1ccccc1F)S(C)(=O)=O | inactive: 99.6%
COc1ccc(Cc2nnc(N/N=C/c3ccc(Br)cc3)[nH]c2=O)cc1OC | inconclusive: 105%
COc1ccc(NC(=O)c2cc(-c3ccco3)nc3ccccc23)cc1S(=O)(=O)N1CCOCC1 | inconclusive: 222%
CCOC(=O)c1c(NC(=O)CSc2nnc(C)c(=O)[nH]2)sc(C)c1C | inconclusive: 92%
CC(C(=O)Nc1ccc(S(=O)(=O)N2CCCCC2)cc1)N1CCN(c2ccccn2)CC1 (stereo not drawn) | inconclusive: 102%
CCSc1nc(O)cc(=O)[nH]1 | inconclusive: 112%
Cc1ccc(-n2nnnc2C(=Cc2ccc(N(C)C)cc2)c2nnnn2-c2ccc(C)cc2)cc1 | active: 18.3%
CCOc1ccc(N(CC(=O)NC(C(C)C)C(C)C)S(=O)(=O)c2ccc(OC)c(OC)c2)cc1 | inconclusive: 111%
O=C(Cn1nnc(-c2ccc(F)cc2)n1)OCC(=O)c1ccccc1 | inconclusive: 96.2%
COC(=O)Nc1ccc2c(c1)OCO2 | inactive: 87.4%
CN1C(=O)/C(=C/c2coc3ccc(O)cc3c2=O)SC1=S | inconclusive: 344%
Nc1[nH]n(-c2ccccc2)c(=O)c1N=Nc1ccccc1 | inconclusive: 112%
FC(F)(F)Oc1ccc(NC(=S)Nc2ccccc2N2CCOCC2)cc1 | inconclusive: 17.1%
O=C(N/N=C/c1ccc2c(c1)OCO2)C(=O)Nc1ccccc1 | inconclusive: 41.7%
Cc1cc(=O)oc2c3c(ccc12)OC/C3=N/N | inconclusive: 117%
COc1cccc(/C=N/Nc2ncnc3c2[nH]c2ccc(C)cc23)c1OC | inconclusive: 54.6%
O=C1NC(=O)C2(COC(c3cccc([N+](=O)[O-])c3)OC2)S1 (stereo not drawn) | inconclusive: 106%
COc1cc(-c2n[nH]c(=S)n2/N=C/c2cccn2C)cc(OC)c1OC | inconclusive: 49.3%
CCOc1ccc(N=C2NC(=O)C(CC(=O)Nc3ccc(OC)cc3)S2)cc1 (stereo not drawn) | inactive: 103%
Cc1cc(C)n(CC2CC(=O)N(c3ccccc3)C2=O)n1 (stereo not drawn) | inconclusive: -61.5%
C[n+]1cccc2ccc3c(c21)OC(N)=C(C#N)C3c1ccccc1 (stereo not drawn) | inconclusive: 126%
CCc1nc(SCc2ccccn2)[nH]c(=O)c1C | inactive: 104%
Cc1ccc(S(=O)(=O)NCC[C@@]2(C)C3CCC2(C)C(=O)C3)cc1 (stereo partly drawn) | inconclusive: 116%
COc1ccc(NC(=O)Cn2nnc(-c3ccccc3NC(=O)c3ccco3)n2)cc1 | inactive: 105%

At a glance, six of the compounds above.
SMILES | binding response (% of control)
COc1cccc(/C=N/Nc2ncnc3c2[nH]c2ccc(C)cc23)c1OC | inconclusive: 54.6%
O=C1NC(=O)C2(COC(c3cccc([N+](=O)[O-])c3)OC2)S1 (stereo not drawn) | inconclusive: 106%
COc1cc(-c2n[nH]c(=S)n2/N=C/c2cccn2C)cc(OC)c1OC | inconclusive: 49.3%
CCOc1ccc(N=C2NC(=O)C(CC(=O)Nc3ccc(OC)cc3)S2)cc1 (stereo not drawn) | inactive: 103%
Cc1cc(C)n(CC2CC(=O)N(c3ccccc3)C2=O)n1 (stereo not drawn) | inconclusive: -61.5%
C[n+]1cccc2ccc3c(c21)OC(N)=C(C#N)C3c1ccccc1 (stereo not drawn) | inconclusive: 126%

Further records follow.

SMILES | binding response (% of control)
COc1ccc(NC(=O)c2ccccc2)c([N+](=O)[O-])c1 | inconclusive: 86%
COc1cccc(CN(C(=O)/C=C/c2ccc(Cl)cc2)C2CCS(=O)(=O)C2)c1 (stereo not drawn) | inactive: 102%
COc1cc(/C=N/Nc2nc(=O)[nH]nc2C)ccc1O | inconclusive: 110%
COc1cc(O)c(C(CCN2CCCCC2)c2ccc3c(c2)OCO3)c(OC)c1 (stereo not drawn) | inconclusive: 112%
CCOC(=O)C1CCN(C(=O)c2ccc(NS(=O)(=O)c3ccc(F)cc3C)cc2)CC1 | inconclusive: 92.4%
CCOc1ccc(N2C(=O)S/C(=C\c3ccc(O)c(OC)c3)C2=O)cc1 | inconclusive: -199%
CCOC(=O)COc1ccc2c(=O)c(-c3ccccc3OC)coc2c1 | inconclusive: 102%
NS(=O)(=O)c1ccc(NC(=O)COc2ncnc3c2cnn3-c2ccccc2)cc1 | inactive: 95.2%
NC(=O)c1c(NC(=O)CN2C(=O)CCC2=O)sc2c1CCCCC2 | inactive: 106%
O=C1CCN(CCc2ccccc2)CCN1[C@H](CSc1ccc(Br)cc1)Cc1ccccc1 | inconclusive: 106%
COc1ccc(Br)cc1C(C[N+](=O)[O-])c1c(N)n(C)c(=O)n(C)c1=O (stereo not drawn) | inconclusive: 74.4%
COc1cc(NC(=O)COC(=O)C=C(C)C)c(C)cc1[N+](=O)[O-] | inconclusive: 89.4%
CCCC(=O)C1=C(O)C(c2cccc(Oc3ccccc3)c2)CCC1=O (stereo not drawn) | inconclusive: 109%
COC(=O)[C@H](C)NC(=O)NCc1ccc(S(N)(=O)=O)cc1 | inconclusive: 424%
Cn1cc(/C=C2\SC(=O)NC2=S)c2ccccc21 | inconclusive: 122%
CCC(C(=O)NC1CCCCC1)N(Cc1cccs1)C(=O)c1snc(C(N)=O)c1N (stereo not drawn) | inconclusive: 97.3%
S=C(CN1CCCC1=S)NCCc1ccccc1 | inconclusive: 89.5%
O=C1COc2ccc(N3C(=O)C=CC3=O)cc2N1 | inactive: 90.8%
Cc1nc2cc(N)ccc2n1-c1ccccc1 | inconclusive: 82.6%
Cc1cc(C(=O)N/N=C/c2cccnc2)n[nH]1 | inconclusive: 103%
COc1ccccc1NC(=O)/C=C/c1cc([N+](=O)[O-])ccc1OC(F)F | inconclusive: 118%
Cc1onc(-c2c(Cl)cccc2Cl)c1COC(=O)c1ccc([N+](=O)[O-])cc1 | inconclusive: 114%
Cc1nsc(N)c1C(=O)O | inconclusive: 40.5%
COc1cc(/C=N/NC(=O)Cc2nnc(N)s2)cc(OC)c1OC | inconclusive: 87.5%

SMILES | binding response (% of control)
COC(=O)c1ccc(C(=O)OC)c(NC(=S)N2CCN(c3ccccn3)CC2)c1 | inconclusive: 93%
CSc1ccccc1NC(=O)c1ccc(C)o1 | inactive: 101%
COC(C[C@H](O)C[C@H](O)COCc1ccccc1)OC | inconclusive: 107%
CCc1c(C)nc(N)nc1Cl | inconclusive: 94.9%
Cc1nc2ccc(NS(=O)(=O)c3ccc4c(c3)OCCO4)cc2s1 | inactive: 95.7%
Cc1onc(-c2ccccc2Cl)c1C(=O)Oc1cccc2cccnc12 | inactive: 102%
O=c1[nH]c(-c2ccccn2)nc2ccccc12 | inactive: 100%
CCN(CC)S(=O)(=O)c1cccc(NC(=O)CN(C)Cc2cccc(OC)c2)c1 | inconclusive: -87.4%
COc1ccccc1CNC(=O)CN(C)S(=O)(=O)c1cccc2cccnc12 | inconclusive: 107%
Cc1cc(NC(=O)c2cc(C(C)(C)C)oc2C)no1 | inconclusive: 61.6%
CCOc1ccccc1NC(=O)CN(C)S(=O)(=O)c1ccc(OC)c(C)c1 | inactive: 102%
CCC1(C)Cc2nc3[nH]c(=S)n(-c4ccccc4C)c(=O)c3cc2CO1 (stereo not drawn) | inconclusive: 79.1%
C=CCn1c(O)c(N=O)c2ccccc21 | inconclusive: 91.9%
O=C(O)CCC(=O)N(Cc1ccco1)C1CC(=O)N(c2ccccc2)C1=O (stereo not drawn) | inconclusive: 138%
Cc1c(/C=N/NC(=O)c2cccnc2)c2ccccc2n1Cc1ccccc1 | active: 154% [activator]
Cc1ccc(S(=O)(=O)CCN2CCN(c3ccccn3)CC2)cc1 | inconclusive: -75.9%
CC(C)c1ccc(/C=C(\NC(=O)c2ccccc2)C(=O)NCCCN2CCOCC2)cc1 | inconclusive: 65.9%
CCCc1cc(=O)[nH]c(SCC(=O)Nc2cc(C)on2)n1 | inactive: 98.3%
O=c1c2cc([N+](=O)[O-])ccc2nc(CN2CCN(c3ccccn3)CC2)n1-c1ccccc1F | inconclusive: 101%
C/C(Cc1ccccc1)=N\NC(=O)CNC(=O)c1cccc(Cl)c1 | inconclusive: 219%
COc1cccc(C(O)c2cnc(C(C)C)n2C)c1 (stereo not drawn) | inconclusive: 81.4%
Cn1cnnc1SCC(=O)Nc1ccc(OCc2ccccc2)cc1 | inactive: 100%
Cc1cccc(OCC(=O)N2CCN(S(C)(=O)=O)CC2)c1 | inconclusive: 106%
Nc1nc2ccc(O)cc2s1 | inactive: 101%

SMILES | binding response (% of control)
CC(C)N1CCC(N2CCN(Cc3nc4ccccc4s3)CC2CCO)CC1 (stereo not drawn) | inconclusive: 117%
CC(=O)N1c2ccccc2C(C)=CC1(C)C | inconclusive: 93.2%
O=c1oc(-c2cccc(C(F)(F)F)c2)nn1-c1ccc(C(F)(F)F)cn1 | inconclusive: 75.6%
NC(=S)NNC(=O)COc1ccccc1O | inconclusive: 109%
CCn1c2ccccc2c2cc(/C=N/n3c(-c4cc(C)[nH]n4)n[nH]c3=S)ccc21 | inconclusive: 60.8%
NC(N)=N/N=C/c1ccc(Br)cc1 | inactive: 101%
CC(=O)NNS(=O)(=O)c1ccccc1[N+](=O)[O-] | inactive: 101%
N#C/C(=C(/O)COc1ccc(Cl)cc1)c1nc2ccccc2s1 | inconclusive: 128%
CN1/C(=C\C(=O)COC(=O)c2ccc(O)cc2)C(C)(C)c2ccccc21 | inconclusive: 61.3%
O=C(Nc1ccccc1)Nc1ccc2ccccc2c1 | inconclusive: 133%
COc1ccc(-n2c(C)cc(/C=C3/SC(=S)N(C)C3=O)c2C)cc1 | active: -5.54%
CC(=O)c1cc(C#N)c(N2CCCCC2)nc1C | inconclusive: 119%
CCOc1ccc(C(C)=O)cc1CN1C(=O)NC(C)(C2CC2)C1=O (stereo not drawn) | inconclusive: 101%
CCn1c(SCC(=O)N/N=C/c2ccccc2OCC(=O)O)nnc1-c1ccc(C(C)(C)C)cc1 | inconclusive: 91.9%
CCc1ccc(C2c3[nH]c4ccccc4c3CCN2C(=O)c2cc[n+]([O-])cc2)cc1 (stereo not drawn) | inconclusive: 75.8%
COc1cccc(C(=O)NC(=S)Nn2cnnc2)c1OC | inconclusive: 91.5%
C=CCOc1ccc(/C=C2\N=C(C)OC2=O)cc1OC | inconclusive: 93.7%
Cc1ccc2c(c1)sc1nc(=O)n(-c3ccccc3)c(=O)n12 | inconclusive: 72.3%
CCOc1ccc2ccccc2c1C1NC(=S)N(C)C(C)=C1C(=O)OC (stereo not drawn) | inconclusive: 96.3%
CCOc1ccc(C2C([N+](=O)[O-])=C(C)N(C)C(=O)N2C)cc1OC (stereo not drawn) | inactive: 104%
O=C(O)c1nccnc1C(=O)Nc1ccc(S(=O)(=O)N2CCOCC2)cc1 | inconclusive: 104%
